Nine substances from publication doi:10.1101/2020.09.14.296160 can be followed below.

Amino acid sequences for entries named in this document (tags omitted).
UniProt Q71RC2: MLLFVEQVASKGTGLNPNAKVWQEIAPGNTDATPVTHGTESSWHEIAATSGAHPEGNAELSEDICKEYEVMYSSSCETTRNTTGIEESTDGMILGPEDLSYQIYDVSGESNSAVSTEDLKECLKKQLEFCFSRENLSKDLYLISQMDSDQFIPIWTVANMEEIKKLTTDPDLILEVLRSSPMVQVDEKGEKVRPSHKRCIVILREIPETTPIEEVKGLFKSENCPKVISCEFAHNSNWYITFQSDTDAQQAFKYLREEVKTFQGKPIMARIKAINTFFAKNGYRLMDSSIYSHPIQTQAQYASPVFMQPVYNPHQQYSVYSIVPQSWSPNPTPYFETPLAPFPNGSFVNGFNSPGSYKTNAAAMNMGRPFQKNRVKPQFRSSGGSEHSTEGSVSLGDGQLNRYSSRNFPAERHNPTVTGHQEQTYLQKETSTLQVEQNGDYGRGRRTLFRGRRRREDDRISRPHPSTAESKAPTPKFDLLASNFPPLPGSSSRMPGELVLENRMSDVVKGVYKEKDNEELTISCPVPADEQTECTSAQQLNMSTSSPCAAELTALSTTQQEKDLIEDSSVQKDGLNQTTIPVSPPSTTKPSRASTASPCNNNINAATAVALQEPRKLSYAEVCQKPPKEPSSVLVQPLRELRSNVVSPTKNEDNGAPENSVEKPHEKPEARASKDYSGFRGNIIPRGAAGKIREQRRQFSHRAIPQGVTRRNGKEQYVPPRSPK
UniProt P51116: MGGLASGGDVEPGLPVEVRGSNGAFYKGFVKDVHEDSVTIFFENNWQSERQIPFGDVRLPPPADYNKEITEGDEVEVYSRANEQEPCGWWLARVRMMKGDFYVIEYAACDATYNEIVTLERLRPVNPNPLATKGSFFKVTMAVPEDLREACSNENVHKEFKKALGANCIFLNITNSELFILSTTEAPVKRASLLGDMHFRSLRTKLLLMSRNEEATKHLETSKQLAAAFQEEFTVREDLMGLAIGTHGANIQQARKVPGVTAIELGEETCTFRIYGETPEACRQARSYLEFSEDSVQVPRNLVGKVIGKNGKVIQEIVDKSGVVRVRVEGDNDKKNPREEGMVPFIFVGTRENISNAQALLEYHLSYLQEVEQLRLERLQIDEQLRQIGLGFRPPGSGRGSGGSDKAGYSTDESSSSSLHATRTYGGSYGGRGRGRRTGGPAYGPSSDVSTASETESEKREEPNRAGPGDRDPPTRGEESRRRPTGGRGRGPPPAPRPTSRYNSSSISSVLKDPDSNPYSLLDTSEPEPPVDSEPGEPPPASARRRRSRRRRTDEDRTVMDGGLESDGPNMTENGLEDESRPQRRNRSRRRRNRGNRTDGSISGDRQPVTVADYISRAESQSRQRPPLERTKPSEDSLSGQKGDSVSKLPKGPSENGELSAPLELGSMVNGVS
UniProt Q96B26: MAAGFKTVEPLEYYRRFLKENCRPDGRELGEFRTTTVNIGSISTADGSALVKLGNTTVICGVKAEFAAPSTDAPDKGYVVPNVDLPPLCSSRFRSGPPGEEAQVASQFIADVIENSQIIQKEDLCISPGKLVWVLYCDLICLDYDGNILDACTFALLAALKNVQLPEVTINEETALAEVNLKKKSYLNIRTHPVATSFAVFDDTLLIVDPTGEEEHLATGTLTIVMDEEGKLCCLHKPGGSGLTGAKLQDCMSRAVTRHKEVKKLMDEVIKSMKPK
UniProt Q9Y6M1: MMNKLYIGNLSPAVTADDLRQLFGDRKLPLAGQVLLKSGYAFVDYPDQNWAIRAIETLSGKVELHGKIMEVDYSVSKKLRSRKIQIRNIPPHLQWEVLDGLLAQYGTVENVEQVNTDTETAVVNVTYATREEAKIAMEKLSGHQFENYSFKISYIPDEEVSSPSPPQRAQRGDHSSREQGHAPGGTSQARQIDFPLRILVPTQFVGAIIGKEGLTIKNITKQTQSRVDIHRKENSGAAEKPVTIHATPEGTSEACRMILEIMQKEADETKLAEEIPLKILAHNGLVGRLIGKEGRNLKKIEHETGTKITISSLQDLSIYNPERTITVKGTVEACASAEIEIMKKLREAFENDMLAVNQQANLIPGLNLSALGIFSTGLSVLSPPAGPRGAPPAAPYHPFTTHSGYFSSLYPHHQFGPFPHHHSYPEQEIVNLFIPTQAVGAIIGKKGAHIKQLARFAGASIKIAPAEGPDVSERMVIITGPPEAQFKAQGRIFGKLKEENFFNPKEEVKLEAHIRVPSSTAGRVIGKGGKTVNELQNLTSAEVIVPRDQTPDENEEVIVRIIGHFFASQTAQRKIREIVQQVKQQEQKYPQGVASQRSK
UniProt P26599: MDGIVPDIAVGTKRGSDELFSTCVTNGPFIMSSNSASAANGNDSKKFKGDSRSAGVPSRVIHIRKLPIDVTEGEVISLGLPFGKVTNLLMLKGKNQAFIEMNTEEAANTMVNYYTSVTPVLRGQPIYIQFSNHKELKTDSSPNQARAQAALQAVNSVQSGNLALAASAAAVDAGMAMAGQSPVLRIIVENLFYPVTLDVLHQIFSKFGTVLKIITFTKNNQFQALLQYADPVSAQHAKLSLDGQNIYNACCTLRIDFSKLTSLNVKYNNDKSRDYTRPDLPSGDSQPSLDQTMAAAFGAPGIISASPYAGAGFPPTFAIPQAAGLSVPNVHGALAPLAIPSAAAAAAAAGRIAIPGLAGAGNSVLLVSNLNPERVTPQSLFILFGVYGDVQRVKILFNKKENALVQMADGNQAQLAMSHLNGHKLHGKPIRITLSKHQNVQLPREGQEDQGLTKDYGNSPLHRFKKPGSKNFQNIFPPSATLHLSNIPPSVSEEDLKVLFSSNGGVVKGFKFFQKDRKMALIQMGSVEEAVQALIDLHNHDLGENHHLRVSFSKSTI
UniProt Q9UKA9: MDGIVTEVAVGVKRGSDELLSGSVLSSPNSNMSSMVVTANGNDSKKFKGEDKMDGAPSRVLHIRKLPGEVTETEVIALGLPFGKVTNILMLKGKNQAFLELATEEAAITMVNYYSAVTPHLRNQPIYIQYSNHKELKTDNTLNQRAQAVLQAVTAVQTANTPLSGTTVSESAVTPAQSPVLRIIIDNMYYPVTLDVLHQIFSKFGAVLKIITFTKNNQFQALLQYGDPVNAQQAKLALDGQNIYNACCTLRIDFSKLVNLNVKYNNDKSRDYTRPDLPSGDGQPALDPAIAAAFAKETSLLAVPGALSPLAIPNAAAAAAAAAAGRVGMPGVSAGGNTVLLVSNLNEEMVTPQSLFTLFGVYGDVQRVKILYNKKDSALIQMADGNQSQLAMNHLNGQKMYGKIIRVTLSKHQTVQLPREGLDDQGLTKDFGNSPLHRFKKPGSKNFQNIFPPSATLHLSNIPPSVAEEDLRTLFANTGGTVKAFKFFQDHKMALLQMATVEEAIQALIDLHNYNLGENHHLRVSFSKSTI
UniProt O43809: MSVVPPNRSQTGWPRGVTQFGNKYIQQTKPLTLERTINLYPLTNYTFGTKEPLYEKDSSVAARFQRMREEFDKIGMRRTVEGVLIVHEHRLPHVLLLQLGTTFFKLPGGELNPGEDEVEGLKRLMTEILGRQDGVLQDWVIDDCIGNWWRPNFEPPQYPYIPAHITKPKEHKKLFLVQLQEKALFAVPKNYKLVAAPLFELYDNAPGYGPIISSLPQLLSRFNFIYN
UniProt Q9NRW3: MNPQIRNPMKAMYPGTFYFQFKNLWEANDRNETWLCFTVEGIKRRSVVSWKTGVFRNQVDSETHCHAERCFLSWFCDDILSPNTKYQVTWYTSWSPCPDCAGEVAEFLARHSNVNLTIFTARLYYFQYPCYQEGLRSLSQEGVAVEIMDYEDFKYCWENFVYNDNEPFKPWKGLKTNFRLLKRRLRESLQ
UniProt Q01844: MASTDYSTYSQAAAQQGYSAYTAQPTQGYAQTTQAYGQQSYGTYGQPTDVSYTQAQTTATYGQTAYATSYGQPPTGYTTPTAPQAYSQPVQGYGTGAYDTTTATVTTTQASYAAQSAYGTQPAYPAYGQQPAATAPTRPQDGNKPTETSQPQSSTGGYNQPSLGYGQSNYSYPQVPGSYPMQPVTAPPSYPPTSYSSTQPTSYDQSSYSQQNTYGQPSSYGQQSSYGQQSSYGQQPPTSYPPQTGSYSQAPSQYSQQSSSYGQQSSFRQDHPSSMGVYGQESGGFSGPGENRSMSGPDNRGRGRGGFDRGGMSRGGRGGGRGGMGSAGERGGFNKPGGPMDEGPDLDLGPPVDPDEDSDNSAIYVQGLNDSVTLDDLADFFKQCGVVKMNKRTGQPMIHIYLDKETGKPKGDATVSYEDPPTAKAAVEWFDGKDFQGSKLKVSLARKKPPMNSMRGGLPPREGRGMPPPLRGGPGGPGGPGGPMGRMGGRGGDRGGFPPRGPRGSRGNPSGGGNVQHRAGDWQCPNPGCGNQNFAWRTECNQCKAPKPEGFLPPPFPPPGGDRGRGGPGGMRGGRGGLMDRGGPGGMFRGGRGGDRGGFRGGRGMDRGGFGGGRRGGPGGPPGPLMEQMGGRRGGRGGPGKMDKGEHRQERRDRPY
UniProt P11940: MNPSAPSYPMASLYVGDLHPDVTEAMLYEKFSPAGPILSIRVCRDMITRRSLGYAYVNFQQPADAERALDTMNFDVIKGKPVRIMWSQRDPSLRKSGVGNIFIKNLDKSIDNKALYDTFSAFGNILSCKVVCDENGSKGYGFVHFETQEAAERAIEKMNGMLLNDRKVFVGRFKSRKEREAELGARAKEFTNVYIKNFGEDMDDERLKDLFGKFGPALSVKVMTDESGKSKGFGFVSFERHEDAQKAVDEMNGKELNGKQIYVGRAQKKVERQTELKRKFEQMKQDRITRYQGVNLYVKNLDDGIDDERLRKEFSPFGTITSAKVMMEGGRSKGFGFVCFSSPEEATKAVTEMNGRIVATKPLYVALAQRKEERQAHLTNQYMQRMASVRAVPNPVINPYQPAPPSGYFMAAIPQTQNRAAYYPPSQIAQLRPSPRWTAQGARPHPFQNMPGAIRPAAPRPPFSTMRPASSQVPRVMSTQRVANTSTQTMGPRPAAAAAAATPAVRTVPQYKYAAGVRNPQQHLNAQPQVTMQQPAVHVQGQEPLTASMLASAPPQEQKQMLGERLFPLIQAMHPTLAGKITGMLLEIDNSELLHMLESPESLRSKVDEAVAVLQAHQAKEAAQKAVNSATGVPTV
UniProt P61326: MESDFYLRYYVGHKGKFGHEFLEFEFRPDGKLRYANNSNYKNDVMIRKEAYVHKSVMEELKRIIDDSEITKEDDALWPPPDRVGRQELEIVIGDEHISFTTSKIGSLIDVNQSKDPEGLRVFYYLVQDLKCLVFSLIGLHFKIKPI
UniProt P98175: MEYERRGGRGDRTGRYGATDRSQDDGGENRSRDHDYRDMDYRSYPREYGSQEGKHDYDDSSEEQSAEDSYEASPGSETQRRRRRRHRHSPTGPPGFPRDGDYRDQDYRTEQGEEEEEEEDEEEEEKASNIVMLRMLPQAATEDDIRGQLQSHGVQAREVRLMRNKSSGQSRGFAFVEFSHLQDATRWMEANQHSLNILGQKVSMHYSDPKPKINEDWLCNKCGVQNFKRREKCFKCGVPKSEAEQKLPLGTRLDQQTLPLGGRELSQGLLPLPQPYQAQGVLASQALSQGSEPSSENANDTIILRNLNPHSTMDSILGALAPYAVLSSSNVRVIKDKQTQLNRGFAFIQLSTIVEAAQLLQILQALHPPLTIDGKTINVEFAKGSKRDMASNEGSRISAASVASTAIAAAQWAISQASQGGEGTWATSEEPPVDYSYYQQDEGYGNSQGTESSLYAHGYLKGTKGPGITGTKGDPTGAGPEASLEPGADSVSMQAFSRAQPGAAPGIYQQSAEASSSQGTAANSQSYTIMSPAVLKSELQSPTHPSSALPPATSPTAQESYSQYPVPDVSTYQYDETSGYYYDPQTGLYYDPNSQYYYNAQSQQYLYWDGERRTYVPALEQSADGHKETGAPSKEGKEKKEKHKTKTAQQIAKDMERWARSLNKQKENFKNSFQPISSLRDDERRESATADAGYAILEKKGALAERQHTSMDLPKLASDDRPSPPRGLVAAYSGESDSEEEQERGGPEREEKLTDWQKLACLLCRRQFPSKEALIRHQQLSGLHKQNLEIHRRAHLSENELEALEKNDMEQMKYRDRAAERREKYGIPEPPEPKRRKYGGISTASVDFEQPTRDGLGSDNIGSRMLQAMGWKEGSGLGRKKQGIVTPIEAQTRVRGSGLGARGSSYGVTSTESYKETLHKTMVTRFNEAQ

Results are given in words; binding and its absence hold for the method and conditions named. Some binding calls cover weakened binding; strength is not graded here.

Among the targets are LARP4 (human) (UniProt Q71RC2); FXR2 (human) (UniProt P51116); PCBP1 (human) (UniProt Q15365); EXOSC8 (human) (UniProt Q96B26); IGF2BP2 (human) (UniProt Q9Y6M1); PTBP1 (human) (UniProt P26599); PTBP2 (human) (UniProt Q9UKA9).
Holding throughout (assay): two-hybrid
The next test deals with T1, CSTF2T (human) (UniProt Q9H0L4).
T1 sequence: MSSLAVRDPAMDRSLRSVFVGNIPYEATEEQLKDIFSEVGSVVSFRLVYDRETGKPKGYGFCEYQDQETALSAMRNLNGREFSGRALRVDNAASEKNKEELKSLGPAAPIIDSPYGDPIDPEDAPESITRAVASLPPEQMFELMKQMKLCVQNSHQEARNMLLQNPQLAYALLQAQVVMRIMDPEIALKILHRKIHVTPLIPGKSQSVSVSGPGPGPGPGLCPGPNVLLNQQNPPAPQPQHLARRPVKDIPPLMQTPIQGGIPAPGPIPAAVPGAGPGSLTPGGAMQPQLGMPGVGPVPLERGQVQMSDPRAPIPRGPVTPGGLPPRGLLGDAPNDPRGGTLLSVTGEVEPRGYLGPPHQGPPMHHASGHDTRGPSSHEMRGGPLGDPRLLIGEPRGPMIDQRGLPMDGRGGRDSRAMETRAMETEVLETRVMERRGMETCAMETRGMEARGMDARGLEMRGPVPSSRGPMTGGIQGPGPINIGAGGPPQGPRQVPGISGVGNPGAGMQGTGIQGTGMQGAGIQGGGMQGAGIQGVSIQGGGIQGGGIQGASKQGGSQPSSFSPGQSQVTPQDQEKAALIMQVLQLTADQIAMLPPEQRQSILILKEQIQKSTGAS

For a further test, the target named is T2, QKI (human) (UniProt Q96PU8).
T2 sequence: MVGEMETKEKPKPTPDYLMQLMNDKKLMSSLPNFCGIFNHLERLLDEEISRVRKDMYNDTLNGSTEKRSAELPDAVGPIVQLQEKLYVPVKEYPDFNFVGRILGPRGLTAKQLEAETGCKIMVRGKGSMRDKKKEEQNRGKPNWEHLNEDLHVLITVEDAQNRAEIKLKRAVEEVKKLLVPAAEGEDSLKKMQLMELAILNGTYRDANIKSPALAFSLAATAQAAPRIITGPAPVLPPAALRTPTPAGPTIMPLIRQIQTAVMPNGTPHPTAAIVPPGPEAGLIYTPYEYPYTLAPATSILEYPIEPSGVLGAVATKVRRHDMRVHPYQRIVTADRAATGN

The target of a further test is T3, RBFOX2 (human) (UniProt O43251).
T3 sequence: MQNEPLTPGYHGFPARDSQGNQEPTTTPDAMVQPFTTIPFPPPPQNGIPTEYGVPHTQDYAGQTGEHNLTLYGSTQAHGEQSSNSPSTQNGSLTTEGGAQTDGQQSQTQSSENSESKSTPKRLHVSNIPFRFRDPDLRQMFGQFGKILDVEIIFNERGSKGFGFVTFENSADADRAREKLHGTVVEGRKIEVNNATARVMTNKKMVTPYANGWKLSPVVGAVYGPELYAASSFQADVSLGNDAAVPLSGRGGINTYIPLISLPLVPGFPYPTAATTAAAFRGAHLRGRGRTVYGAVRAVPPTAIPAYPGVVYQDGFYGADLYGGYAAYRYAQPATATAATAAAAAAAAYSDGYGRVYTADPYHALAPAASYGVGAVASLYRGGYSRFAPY

Test [1] deals with T4, zinc-finger protein ZC3H8 (human) (UniProt Q8N5P1).
T4 sequence: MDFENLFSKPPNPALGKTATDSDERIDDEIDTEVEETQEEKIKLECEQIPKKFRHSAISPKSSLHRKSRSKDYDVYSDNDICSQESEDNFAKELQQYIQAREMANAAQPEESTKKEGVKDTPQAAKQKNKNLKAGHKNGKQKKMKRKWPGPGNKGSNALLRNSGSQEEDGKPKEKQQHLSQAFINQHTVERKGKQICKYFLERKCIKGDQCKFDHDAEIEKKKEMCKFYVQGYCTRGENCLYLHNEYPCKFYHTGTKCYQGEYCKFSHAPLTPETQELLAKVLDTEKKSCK

Test [2] concerns the target 3’end processing hydrolase NUDT21 (human) (UniProt O43809).
For another test, the target named is T5, CPSF7 (human) (UniProt Q8N684).
T5 sequence: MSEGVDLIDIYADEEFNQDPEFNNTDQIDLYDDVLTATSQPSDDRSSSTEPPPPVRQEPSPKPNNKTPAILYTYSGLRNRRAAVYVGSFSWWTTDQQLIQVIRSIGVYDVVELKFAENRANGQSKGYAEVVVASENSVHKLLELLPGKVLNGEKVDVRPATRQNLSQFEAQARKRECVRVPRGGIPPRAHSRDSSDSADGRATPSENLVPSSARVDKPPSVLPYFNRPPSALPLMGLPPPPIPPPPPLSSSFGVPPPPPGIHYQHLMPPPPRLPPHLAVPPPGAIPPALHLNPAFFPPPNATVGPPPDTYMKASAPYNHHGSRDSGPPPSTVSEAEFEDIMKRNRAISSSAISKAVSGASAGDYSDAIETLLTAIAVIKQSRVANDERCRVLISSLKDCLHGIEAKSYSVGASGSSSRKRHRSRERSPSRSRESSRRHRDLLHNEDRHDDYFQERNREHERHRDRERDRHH

Test [3] deals with T6, NEXT component RBM7 (human) (UniProt Q9Y580).
T6 sequence: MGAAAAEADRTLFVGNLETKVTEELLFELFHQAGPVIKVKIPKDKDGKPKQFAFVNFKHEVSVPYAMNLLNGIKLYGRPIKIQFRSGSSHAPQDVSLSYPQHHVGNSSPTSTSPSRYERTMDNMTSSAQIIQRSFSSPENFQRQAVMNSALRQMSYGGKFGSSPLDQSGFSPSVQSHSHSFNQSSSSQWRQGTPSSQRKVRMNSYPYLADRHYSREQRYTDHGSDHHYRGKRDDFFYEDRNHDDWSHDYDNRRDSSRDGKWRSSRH

For the substance APOBEC3C (from UniProt Q9NRW3 1-190), in the test with LARP4 (human), the binding result is recorded as “binds”. Regarding EWSR1 (from UniProt Q01844 1-656), in the test with CSTF2T (human), the binding entry is “binds”. Consider FXR1 (from UniProt P51114 1-621), for which the binding entry with FXR2 (human) is “binds”. As for HNRNPK (from UniProt P61978 1-463), the binding entry in the test with PCBP1 (human) and with QKI (human) was “binds” throughout. PABPC1 (from UniProt P11940 1-636): the binding entry with EXOSC8 (human) is on record as “binds”. On to PCBP1 (from UniProt Q15365 1-356), for which the binding result with IGF2BP2 (human) and with RBFOX2 (human) was “binds” each time. For PTBP1 (from UniProt P26599 1-557), in [1], the binding result was “binds”. Regarding “major EJC component MAGOH (from UniProt P61326 1-146)”, the binding result (in [2]; in the test with CPSF7 (human)) was “binds” each time. Turning to “wildtype RBM10 (from UniProt P98175 1-930)”, the binding entry (in [3]; with PTBP1 (human); with PTBP2 (human)) was “binds” each time.
